In paper PMC6697986:
These are yes or no findings as the source states them, for the method shown. In cells and extracts the contact can be indirect. Some results given as binding are weak or reduced against the parent protein; the word gives no strength.

Tests used:
[1] = target: T1, Large tumor suppressor 1 (Lats1) in T47D cells (UniProt O95835); assay: co-IP; Thermo Scientific Pierce Co-IP kit; extracts of T47D or BT549 cells in lysis buffer (150 mM NaCl, 0.5% NP-40, Tris-HCl pH 8.0, glycerol); IP with anti-Flag or anti-CRABP2 antibody or IgG; Western blot with anti-CRABP2 or anti-Lats1
T1 sequence: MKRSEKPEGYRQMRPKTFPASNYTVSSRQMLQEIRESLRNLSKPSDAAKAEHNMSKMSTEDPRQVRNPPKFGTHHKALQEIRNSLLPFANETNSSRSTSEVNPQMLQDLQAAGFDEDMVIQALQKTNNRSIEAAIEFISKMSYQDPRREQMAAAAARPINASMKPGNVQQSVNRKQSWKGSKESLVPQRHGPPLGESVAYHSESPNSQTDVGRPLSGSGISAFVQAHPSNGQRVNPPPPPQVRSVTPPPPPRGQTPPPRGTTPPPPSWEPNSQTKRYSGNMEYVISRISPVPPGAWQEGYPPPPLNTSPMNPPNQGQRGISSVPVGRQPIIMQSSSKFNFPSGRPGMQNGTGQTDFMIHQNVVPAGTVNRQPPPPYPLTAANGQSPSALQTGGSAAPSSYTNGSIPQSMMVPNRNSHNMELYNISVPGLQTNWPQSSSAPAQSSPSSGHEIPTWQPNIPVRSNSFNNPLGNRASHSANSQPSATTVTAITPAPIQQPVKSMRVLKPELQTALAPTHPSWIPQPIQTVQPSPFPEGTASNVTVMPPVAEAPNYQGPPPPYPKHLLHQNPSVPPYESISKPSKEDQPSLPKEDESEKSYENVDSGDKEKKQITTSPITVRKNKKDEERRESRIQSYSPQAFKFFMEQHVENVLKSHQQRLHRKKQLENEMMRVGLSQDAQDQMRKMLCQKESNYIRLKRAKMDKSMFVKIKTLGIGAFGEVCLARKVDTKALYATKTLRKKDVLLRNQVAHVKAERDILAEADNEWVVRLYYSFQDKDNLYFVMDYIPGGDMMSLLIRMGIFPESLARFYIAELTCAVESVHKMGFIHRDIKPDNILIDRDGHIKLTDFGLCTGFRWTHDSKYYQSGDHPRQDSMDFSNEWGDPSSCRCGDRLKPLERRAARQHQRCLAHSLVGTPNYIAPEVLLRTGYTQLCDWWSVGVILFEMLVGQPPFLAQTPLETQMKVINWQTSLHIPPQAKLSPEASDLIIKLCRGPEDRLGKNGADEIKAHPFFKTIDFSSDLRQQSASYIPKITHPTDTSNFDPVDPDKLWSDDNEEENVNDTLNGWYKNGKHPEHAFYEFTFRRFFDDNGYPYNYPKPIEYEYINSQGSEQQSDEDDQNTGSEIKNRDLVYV

[2] = target: T2, Large tumor suppressor 1 (Lats1) in BT549 cells (UniProt O95835); assay: as above
T2 sequence: T1 sequence

B1: Cellular retinoic acid binding protein 2 (CRABP2), endogenous in T47D cells (protein, UniProt P29373 1-138)
chain: MPNFSGNWKIIRSENFEELLKVLGVNVMLRKIAVAAASKPAVEIKQEGDTFYIKTSTTVRTTEINFKVGEEFEEQTVDGRPCKSLVKWESENKMVCEQKLLKGEGPKTSWTRELTNDGELILTMTADDVVCTRVYVRE
binding [1]: binds

B2: Cellular retinoic acid binding protein 2 (CRABP2), exogenous in BT549 cells (protein, UniProt P29373 1-138)
chain: B1 chain
binding [2]: binds
